Results from the supplement of paper PMC10849652.
The list shows a part of the results.

The chains behind the UniProt entries cited, without tags or fusion partners. Where a name states a change or a piece, a line headed by the entry shows the natural chain unless it says otherwise.
UniProt Q9UP95: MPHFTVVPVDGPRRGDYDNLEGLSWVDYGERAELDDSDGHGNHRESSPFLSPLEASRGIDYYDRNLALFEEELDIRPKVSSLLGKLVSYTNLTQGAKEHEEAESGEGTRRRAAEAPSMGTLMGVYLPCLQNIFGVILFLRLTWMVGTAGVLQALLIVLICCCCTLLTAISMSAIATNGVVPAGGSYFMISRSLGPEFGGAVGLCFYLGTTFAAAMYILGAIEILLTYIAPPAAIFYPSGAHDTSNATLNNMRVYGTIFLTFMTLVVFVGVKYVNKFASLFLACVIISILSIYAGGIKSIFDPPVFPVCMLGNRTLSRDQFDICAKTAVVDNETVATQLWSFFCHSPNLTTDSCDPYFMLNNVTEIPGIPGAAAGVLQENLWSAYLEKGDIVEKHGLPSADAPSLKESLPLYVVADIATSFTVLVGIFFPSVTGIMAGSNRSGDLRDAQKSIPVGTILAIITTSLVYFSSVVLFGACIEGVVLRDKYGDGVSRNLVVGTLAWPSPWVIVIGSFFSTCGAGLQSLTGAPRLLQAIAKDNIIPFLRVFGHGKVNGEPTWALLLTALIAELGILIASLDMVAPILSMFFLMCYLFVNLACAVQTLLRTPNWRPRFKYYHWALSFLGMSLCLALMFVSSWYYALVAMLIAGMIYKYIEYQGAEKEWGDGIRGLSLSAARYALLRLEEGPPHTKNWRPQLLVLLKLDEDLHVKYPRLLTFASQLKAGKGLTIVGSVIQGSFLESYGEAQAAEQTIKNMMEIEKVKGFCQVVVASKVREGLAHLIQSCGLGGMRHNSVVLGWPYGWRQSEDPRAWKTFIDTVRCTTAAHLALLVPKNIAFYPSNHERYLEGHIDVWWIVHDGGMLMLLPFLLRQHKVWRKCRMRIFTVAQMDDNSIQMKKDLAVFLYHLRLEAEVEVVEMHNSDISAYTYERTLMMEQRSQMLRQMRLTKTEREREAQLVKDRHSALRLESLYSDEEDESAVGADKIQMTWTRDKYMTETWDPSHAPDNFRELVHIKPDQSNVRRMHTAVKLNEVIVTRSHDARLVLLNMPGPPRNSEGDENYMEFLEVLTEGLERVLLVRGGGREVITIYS
UniProt Q9BXP2: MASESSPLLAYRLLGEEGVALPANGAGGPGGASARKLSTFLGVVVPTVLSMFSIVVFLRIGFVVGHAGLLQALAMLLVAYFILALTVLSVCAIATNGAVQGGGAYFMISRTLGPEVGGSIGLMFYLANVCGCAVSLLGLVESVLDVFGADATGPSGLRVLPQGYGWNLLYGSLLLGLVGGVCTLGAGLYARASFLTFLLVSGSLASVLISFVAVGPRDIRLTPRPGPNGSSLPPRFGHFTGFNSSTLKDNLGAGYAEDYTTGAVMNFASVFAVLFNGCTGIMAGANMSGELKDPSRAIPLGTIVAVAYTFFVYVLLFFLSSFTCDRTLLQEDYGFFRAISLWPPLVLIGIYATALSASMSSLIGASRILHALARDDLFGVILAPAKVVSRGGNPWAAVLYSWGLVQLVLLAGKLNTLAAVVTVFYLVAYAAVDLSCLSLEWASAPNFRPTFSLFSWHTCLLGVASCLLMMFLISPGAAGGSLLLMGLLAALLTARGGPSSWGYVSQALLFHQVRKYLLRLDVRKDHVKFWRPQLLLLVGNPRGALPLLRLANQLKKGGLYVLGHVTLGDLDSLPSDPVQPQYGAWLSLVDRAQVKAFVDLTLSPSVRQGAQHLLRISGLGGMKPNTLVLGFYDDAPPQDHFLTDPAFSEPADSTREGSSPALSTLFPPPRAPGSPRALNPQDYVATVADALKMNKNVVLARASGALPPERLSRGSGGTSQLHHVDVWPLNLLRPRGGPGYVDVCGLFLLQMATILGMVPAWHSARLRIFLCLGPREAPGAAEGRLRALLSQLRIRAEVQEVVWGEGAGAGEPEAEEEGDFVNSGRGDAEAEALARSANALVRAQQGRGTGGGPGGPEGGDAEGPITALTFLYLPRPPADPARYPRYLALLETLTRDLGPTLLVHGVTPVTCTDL
UniProt Q96AG3: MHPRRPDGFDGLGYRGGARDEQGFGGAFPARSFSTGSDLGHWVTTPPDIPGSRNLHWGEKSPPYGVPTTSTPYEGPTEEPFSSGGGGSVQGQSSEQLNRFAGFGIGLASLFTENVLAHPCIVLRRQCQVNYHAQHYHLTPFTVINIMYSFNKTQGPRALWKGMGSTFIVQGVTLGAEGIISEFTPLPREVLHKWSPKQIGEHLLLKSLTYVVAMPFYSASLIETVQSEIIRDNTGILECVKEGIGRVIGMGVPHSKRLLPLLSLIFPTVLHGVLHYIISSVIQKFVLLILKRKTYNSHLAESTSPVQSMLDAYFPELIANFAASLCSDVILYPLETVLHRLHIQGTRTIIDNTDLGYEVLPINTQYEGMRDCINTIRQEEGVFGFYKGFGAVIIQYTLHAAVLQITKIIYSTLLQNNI
UniProt Q00325: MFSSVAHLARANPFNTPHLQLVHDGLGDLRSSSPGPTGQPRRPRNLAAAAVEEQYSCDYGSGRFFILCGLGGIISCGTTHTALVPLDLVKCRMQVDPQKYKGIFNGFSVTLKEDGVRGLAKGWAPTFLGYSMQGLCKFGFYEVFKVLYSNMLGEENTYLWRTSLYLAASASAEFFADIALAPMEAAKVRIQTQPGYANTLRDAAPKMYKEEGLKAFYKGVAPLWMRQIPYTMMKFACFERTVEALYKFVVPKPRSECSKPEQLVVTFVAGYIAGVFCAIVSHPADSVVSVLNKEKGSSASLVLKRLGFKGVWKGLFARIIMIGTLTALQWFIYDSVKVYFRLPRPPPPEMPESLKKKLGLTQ
UniProt Q9NP59: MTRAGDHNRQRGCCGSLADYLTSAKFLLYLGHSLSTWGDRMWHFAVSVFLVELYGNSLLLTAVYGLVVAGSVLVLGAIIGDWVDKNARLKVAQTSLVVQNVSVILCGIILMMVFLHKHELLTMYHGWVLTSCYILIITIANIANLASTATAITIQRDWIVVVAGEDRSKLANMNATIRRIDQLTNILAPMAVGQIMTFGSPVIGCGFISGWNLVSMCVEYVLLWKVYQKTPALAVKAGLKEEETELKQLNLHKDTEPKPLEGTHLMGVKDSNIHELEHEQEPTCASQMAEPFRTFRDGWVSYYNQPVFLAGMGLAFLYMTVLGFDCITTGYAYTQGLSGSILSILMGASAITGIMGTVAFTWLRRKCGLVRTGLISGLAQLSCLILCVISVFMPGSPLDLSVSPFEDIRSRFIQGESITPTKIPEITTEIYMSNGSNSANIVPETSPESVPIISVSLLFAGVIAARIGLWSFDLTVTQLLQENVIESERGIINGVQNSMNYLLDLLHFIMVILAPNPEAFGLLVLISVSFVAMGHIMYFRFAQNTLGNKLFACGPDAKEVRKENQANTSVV
UniProt Q6NUK1: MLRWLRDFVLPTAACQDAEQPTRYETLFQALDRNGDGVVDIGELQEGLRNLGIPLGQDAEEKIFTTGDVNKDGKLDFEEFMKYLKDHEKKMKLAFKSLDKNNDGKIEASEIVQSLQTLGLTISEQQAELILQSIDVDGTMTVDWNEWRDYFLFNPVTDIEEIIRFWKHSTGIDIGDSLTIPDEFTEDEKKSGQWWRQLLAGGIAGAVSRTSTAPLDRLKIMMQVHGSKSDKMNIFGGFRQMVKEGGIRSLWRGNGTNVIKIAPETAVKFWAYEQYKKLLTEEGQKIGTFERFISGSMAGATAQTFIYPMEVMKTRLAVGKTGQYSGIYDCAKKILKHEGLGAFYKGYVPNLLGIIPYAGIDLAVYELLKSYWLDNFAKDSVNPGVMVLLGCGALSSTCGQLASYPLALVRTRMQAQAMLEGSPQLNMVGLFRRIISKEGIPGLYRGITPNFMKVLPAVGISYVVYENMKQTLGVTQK
UniProt Q8TAD4: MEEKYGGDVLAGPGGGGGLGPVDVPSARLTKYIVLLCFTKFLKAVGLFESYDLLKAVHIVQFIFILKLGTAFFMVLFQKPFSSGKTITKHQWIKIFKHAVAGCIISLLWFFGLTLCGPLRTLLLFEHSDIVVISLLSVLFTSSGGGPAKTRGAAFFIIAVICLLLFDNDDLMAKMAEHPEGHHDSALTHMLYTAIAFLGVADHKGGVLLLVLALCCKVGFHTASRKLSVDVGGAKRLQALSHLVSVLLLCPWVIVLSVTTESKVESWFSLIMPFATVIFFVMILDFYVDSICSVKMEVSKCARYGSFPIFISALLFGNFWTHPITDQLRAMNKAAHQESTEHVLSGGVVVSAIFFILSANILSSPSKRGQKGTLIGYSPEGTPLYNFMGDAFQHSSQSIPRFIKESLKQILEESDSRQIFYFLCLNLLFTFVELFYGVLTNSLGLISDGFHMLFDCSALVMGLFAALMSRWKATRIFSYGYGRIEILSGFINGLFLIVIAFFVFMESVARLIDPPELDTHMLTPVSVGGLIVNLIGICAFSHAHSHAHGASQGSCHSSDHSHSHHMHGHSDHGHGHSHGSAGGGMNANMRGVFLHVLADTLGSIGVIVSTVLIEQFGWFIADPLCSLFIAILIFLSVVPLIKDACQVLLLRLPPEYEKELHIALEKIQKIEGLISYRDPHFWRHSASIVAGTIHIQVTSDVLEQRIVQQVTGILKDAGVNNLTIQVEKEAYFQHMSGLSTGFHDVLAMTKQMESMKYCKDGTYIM
UniProt P31641: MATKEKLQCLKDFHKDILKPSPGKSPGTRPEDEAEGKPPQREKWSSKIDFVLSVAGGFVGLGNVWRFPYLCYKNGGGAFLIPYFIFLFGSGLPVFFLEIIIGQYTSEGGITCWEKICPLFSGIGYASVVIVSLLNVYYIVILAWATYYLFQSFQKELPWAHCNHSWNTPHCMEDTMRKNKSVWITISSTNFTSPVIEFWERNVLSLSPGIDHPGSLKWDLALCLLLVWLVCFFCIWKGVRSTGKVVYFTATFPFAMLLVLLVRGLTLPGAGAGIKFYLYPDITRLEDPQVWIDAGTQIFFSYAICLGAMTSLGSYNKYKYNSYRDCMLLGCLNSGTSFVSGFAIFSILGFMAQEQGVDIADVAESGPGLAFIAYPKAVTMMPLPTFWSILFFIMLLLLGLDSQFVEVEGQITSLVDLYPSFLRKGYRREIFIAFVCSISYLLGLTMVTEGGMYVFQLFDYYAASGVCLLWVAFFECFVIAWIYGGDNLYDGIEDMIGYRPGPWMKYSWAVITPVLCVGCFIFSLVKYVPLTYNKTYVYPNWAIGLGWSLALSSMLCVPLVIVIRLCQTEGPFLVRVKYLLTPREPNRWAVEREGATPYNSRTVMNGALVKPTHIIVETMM
UniProt Q9UJS0: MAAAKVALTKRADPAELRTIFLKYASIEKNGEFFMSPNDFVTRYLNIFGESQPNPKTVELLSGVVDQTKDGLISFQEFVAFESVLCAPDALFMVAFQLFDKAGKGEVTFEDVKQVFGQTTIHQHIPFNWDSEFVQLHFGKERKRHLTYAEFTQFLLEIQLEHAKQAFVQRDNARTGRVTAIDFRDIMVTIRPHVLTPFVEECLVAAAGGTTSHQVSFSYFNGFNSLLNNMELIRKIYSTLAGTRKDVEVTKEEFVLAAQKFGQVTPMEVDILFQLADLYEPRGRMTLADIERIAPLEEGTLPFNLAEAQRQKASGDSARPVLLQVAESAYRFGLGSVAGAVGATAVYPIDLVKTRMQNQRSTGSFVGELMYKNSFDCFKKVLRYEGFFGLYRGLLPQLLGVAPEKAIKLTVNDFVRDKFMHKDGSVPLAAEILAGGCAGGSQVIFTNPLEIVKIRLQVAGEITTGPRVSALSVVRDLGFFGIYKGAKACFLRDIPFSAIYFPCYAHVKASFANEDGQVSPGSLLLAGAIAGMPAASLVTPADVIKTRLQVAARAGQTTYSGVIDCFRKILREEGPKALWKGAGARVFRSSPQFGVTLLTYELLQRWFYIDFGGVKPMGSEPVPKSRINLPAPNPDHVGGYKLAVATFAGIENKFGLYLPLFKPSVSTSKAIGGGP
UniProt Q9H2H9: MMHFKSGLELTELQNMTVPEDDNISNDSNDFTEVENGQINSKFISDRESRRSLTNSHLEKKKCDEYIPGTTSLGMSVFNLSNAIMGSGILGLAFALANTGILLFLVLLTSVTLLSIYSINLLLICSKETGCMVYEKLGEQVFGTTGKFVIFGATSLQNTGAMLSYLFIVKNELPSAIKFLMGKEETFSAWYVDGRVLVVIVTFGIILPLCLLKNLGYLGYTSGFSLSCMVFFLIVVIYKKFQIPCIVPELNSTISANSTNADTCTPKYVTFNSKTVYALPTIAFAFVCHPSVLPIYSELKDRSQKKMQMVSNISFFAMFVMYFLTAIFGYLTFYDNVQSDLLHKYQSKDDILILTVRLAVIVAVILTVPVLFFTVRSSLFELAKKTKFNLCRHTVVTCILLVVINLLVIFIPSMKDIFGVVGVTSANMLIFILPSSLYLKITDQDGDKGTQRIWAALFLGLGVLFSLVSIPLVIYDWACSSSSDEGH

Legend:
Test in all cases: log2 fold change, soluble protein after heating vs DMSO (PISA); higher = thermal stabilisation; K562 cells, 10 uM, 30 min; active = over 0.2 and 3.5 SD of the protein, either way, in both replicates (recomputed)
[1] = compound: CC1=C(C=C(C=C1)NC(=O)C2=CC(=CC=C2)C(C)(C)C#N)NC3=CC4=C(C=C3)N=CN(C4=O)C
How it was run: (§1)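 Thermal stability values are relative to control samples and come from duplicates. They are expressed as log2 fold changes. For measurement, K562 cells (2×10^6 cells/mL) received 10 μM compound for 30 min, and aliquots were heated for 3 min over 48°C-58°C, pooled, and extracted at 4°C in PBS with 0.5% NP-40. Soluble protein, the supernatant after 21,000xg for 90 min, was quantified by TMTpro 16plex LC-MS/MS with equalised channel sums.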

[2] = compound: CC1=C(C=C(C=C1)NC(=O)C2=CC(=CC=C2)N(C)C)NC(=O)C3=CC=C(C=C3)O
How it was run: as §1

[3] = compound: CC1=CC=C(C=C1)SC2=C3C=C(SC3=CN=C2)C(=O)N
How it was run: as §1

[4] = compound: CC1=NC(=CC=C1)C2=C(N=C(N2)C(C)(C)C)C3=CC4=NC=CN=C4C=C3
How it was run: as §1

Nexturastat A = compound: CCCCN(Cc1ccc(C(=O)NO)cc1)C(=O)Nc1ccccc1 [Nexturastat A]
How it was run: as §1

vemurafenib = compound: CCCS(=O)(=O)Nc1ccc(F)c(C(=O)c2c[nH]c3ncc(-c4ccc(Cl)cc4)cc23)c1F [vemurafenib]
How it was run: as §1

[5] = compound: CCCS(=O)(=O)Nc1ccc(F)c(C(=O)c2c[nH]c3ncc(Cl)cc23)c1F
How it was run: as §1

[6] = compound: CCCc1cc(C)[nH]c(=O)c1CNC(=O)c1cc(-c2ccnc(N3CCN(C)CC3)c2)cc2c1cnn2C(C)C
How it was run: as §1

givinostat = compound: CCN(CC)Cc1ccc2cc(COC(=O)Nc3ccc(C(=O)NO)cc3)ccc2c1 [givinostat]
How it was run: as §1

barasertib = compound: CCN(CCCOc1ccc2c(Nc3cc(CC(=O)Nc4cccc(F)c4)[nH]n3)ncnc2c1)CCOP(=O)(O)O [barasertib]
How it was run: as §1

[7] = compound: CC[C@@H]1C(=O)N(C)c2cnc(Nc3ccc(C(=O)NC4CCN(C)CC4)cc3OC)nc2N1C1CCCC1
How it was run: as §1

volasertib = compound: CC[C@@H]1C(=O)N(C)c2cnc(Nc3ccc(C(=O)N[C@H]4CC[C@H](N5CCN(CC6CC6)CC5)CC4)cc3OC)nc2N1C(C)C [volasertib]
How it was run: as §1

[8] = compound: CC[C@H](C)N1C=C(C2=C(C=C(C=C21)C3=CN=C(C=C3)N4CCNCC4)C(=O)NCC5=C(C=C(NC5=O)C)C)C
How it was run: as §1

epoxomicin = compound: CC[C@H](C)[C@@H](C(=O)N[C@@H]([C@@H](C)O)C(=O)N[C@@H](CC(C)C)C(=O)[C@]1(CO1)C)NC(=O)[C@H]([C@@H](C)CC)N(C)C(=O)C [epoxomicin]
How it was run: as §1

[9] = compound: CCn1c(C(=O)N(C2CC2)C2CC2)cc2c3c(ncn3C)c(Nc3cc(C)n(C)n3)nc21
How it was run: as §1

[10] = compound: CCn1cc(-c2ccnc3[nH]c(-c4cccc(CN(C)C)c4)cc23)c(-c2ccc(NC(=O)N(C)C)cc2)n1
How it was run: as §1

[11] = compound: CN(C)CC(=O)Nc1ccc2[nH]c(=O)c3ccccc3c2c1
How it was run: as §1

rosiglitazone = compound: CN(CCOC1=CC=C(C=C1)C[C@H]2C(=O)NC(=O)S2)C3=CC=CC=N3 (racemic) [rosiglitazone]
How it was run: as §1

[12] = compound: CN1C2=C(C3=C1C(=O)N(N=C3)CC4=CC(=CC=C4)N)SC(=C2)S(=O)C
How it was run: as §1

[13] = compound: CN1CCC(CNc2ccc3ncc(-c4cccc(OC(F)(F)F)c4)n3n2)CC1
How it was run: as §1

Measured: log2 fold change

SLC12A4 (UniProt Q9UP95)
inactive: [1] 0.025 | [2] 0.027 | [3] 0.059 | [4] 0.015 | Nexturastat A -0.012 | vemurafenib -0.014 | [5] -0.052 | [6] -0.023 | givinostat -0.037 | barasertib 0.066 | [7] 0.037 | volasertib -0.04 | [8] -0.029 | epoxomicin 0.033 | [9] -0.001 | [10] -0.015 | [11] 0.061 | rosiglitazone -0.016 | [12] -0.005 | [13] -0.185

SLC12A9 (UniProt Q9BXP2)
inactive: [1] -0.007 | [2] 0.056 | [3] -0.04 | [4] 0.005 | Nexturastat A -0.008 | vemurafenib 0.017 | [5] -0.012 | [6] -0.059 | givinostat -0.014 | barasertib 0.083 | [7] 0.014 | volasertib -0.034 | [8] -0.016 | epoxomicin 0.059 | [10] -0.016 | [11] -0.02 | [12] -0.075 | [13] -0.136

SLC25A46 (UniProt Q96AG3)
inactive: [1] 0.004 | [2] -0.037 | [3] -0.023 | [4] 0.022 | Nexturastat A -0.027 | vemurafenib -0.074 | [5] -0.015 | [6] -0.026 | givinostat -0.028 | barasertib 0.004 | [7] 0.021 | volasertib 0.049 | [8] 0.007 | epoxomicin 0.007 | [9] -0.02 | [10] -0.073 | [11] -0.026 | rosiglitazone 0.026 | [12] 0.001 | [13] -0.012

SLC25A3 isoform 2 (UniProt Q00325)
inactive: [1] 0.016 | [2] 0.004 | [3] -0.007 | [4] -0.015 | Nexturastat A -0.041 | vemurafenib 0.019 | [5] -0.033 | [6] -0.027 | givinostat -0.012 | barasertib -0.029 | [7] 0.007 | volasertib 0.077 | [8] -0.051 | epoxomicin -0.028 | [9] 0.011 | [10] 0.002 | [11] -0.024 | rosiglitazone -0.001 | [12] -0.052 | [13] 0.078

SLC40A1 (UniProt Q9NP59)
inactive: [1] -0.066 | [2] -0.028 | [3] 0.028 | [4] -0.05 | Nexturastat A 0.099 | vemurafenib 0.053 | [5] -0.049 | [6] -0.1 | givinostat -0.067 | barasertib 0.1 | [7] 0.18 | volasertib 0.072 | [8] 0.098 | epoxomicin -0.057 | [9] -0.091 | [10] -0.073 | [11] 0.076 | rosiglitazone 0.097 | [12] -0.061 | [13] 0.148

SLC25A24 (UniProt Q6NUK1)
inactive: [1] -0.043 | [2] -0.006 | [3] 0.016 | [4] 0.013 | Nexturastat A -0.051 | vemurafenib -0.031 | [5] -0.03 | [6] -0.029 | givinostat -0.005 | barasertib -0.012 | [7] 0.014 | volasertib 0.057 | [8] -0.039 | epoxomicin -0.027 | [9] 0.014 | [10] 0.006 | [11] -0.026 | rosiglitazone 0.008 | [12] -0.015 | [13] 0.078

SLC39A14 (UniProt Q15043)
inactive: [1] -0.015 | [2] 0.065 | [3] 0.019 | [4] -0.008 | Nexturastat A -0.003 | vemurafenib -0.022 | [5] -0.038 | [6] -0.033 | givinostat 0.021 | barasertib 0.009 | [7] -0.002 | volasertib 0.259 | [8] -0.012 | epoxomicin -0.052 | [9] 0.074 | [10] -0.02 | [11] -0.023 | rosiglitazone -0.024 | [12] -0.047 | [13] -0.139

SLC30A9 (UniProt Q6PML9)
inactive: [1] -0.084 | [2] 0.038 | [3] 0.01 | [4] 0.034 | Nexturastat A -0.015 | vemurafenib 0.06 | [5] -0.018 | [6] -0.151 | givinostat 0.049 | barasertib -0.014 | [7] 0.065 | volasertib 0.018 | [8] 0.021 | epoxomicin 0.016 | [9] -0.039 | [10] -0.01 | [11] 0.045 | rosiglitazone -0.033 | [12] -0.083 | [13] -0.058

SLC25A37 (UniProt Q9NYZ2)
inactive: [1] 0.045 | [2] -0.083 | [3] 0.011 | [4] -0.004 | Nexturastat A -0.027 | vemurafenib 0.077 | [5] 0.007 | [6] -0.066 | givinostat 0.021 | barasertib 0.059 | [7] 0.079 | volasertib 0.032 | [8] -0.039 | epoxomicin -0.025 | [9] 0.008 | [10] 0.003 | [11] -0.04 | rosiglitazone -0.065 | [12] -0.028 | [13] 0.094

SLC45A4 isoform 3 (UniProt Q5BKX6)
inactive: [1] 0.117 | [2] 0.092 | [3] -0.013 | [4] 0.03 | Nexturastat A 0.041 | vemurafenib -0.139 | [5] -0.064 | [6] 0.01 | givinostat 0.011 | barasertib 0.009 | [7] 0.069 | volasertib 0.047 | [8] -0.084 | epoxomicin -0.041 | [9] 0.006 | [10] -0.091 | [11] -0.037 | rosiglitazone 0.031 | [12] -0.079 | [13] 0.199

SLC20A2 (UniProt Q08357)
inactive: [1] -0.048 | [2] -0.054 | [3] -0.034 | [4] -0.03 | Nexturastat A -0.076 | vemurafenib -0.086 | [5] -0.007 | [6] -0.056 | givinostat 0.042 | barasertib -0.025 | [7] 0.105 | volasertib 0.035 | [8] 0.013 | epoxomicin -0.046 | [9] 0.013 | [10] -0.048 | [11] 0.016 | rosiglitazone -0.015 | [12] -0.063 | [13] -0.07

SLC30A5 (UniProt Q8TAD4)
inactive: [1] 0.077 | [2] 0.067 | [3] 0.025 | [4] 0.006 | Nexturastat A -0.077 | vemurafenib 0.029 | [5] 0.071 | [6] -0.12 | givinostat -0.007 | barasertib 0.038 | [7] -0.011 | volasertib -0.055 | [8] 0.017 | epoxomicin 0.013 | [9] 0.019 | [10] 0.001 | [11] 0 | rosiglitazone 0.168 | [12] 0.002 | [13] 0.135

SLC6A6 (UniProt P31641)
inactive: [1] 0.017 | [2] 0.014 | [3] 0.011 | [4] 0.028 | Nexturastat A -0.062 | vemurafenib 0.066 | [5] -0.01 | [6] -0.176 | givinostat 0.014 | barasertib -0.018 | [7] -0.011 | volasertib 0.01 | [8] 0 | epoxomicin 0.135 | [10] -0.053 | [11] -0.012 | [12] -0.02 | [13] 0.084

SLC4A7 isoform 7 (UniProt Q9Y6M7)
inactive: [1] -0.058 | [2] -0.049 | [3] 0.014 | [4] -0.053 | Nexturastat A -0.111 | vemurafenib -0.119 | [5] -0.078 | [6] 0.001 | givinostat 0.027 | barasertib 0.032 | [7] 0.07 | volasertib 0.039 | [8] 0.127 | epoxomicin 0.011 | [9] -0.037 | [11] 0.041 | rosiglitazone -0.021 | [12] 0.077

SLC25A13 isoform 2 (UniProt Q9UJS0)
inactive: [1] -0.004 | [2] -0.008 | [3] -0.009 | [4] -0.019 | Nexturastat A -0.059 | vemurafenib -0.031 | [5] 0.004 | [6] -0.013 | givinostat 0.007 | barasertib -0.009 | [7] -0.006 | volasertib 0.012 | [8] -0.031 | epoxomicin -0.021 | [9] 0.012 | [10] 0.03 | [11] 0.001 | rosiglitazone 0.01 | [12] -0.005 | [13] 0.055

SLC38A1 (UniProt Q9H2H9)
inactive: [1] 0.028 | [2] 0.031 | [3] 0.016 | [4] -0.007 | Nexturastat A -0.018 | vemurafenib -0.032 | [5] 0 | [6] -0.192 | givinostat -0.05 | barasertib 0 | [7] 0.145 | volasertib 0.005 | [8] -0.097 | epoxomicin 0.014 | [9] 0.024 | [10] 0.036 | [11] -0.02 | rosiglitazone 0.019 | [12] -0.049 | [13] 0.1

2 records drawn at random from the list so far:
SLC25A13 isoform 2 (UniProt Q9UJS0)
inactive: [1] -0.004 | [2] -0.008 | [3] -0.009 | [4] -0.019 | Nexturastat A -0.059 | vemurafenib -0.031 | [5] 0.004 | [6] -0.013 | givinostat 0.007 | barasertib -0.009 | [7] -0.006 | volasertib 0.012 | [8] -0.031 | epoxomicin -0.021 | [9] 0.012 | [10] 0.03 | [11] 0.001 | rosiglitazone 0.01 | [12] -0.005 | [13] 0.055

SLC6A6 (UniProt P31641)
inactive: [1] 0.017 | [2] 0.014 | [3] 0.011 | [4] 0.028 | Nexturastat A -0.062 | vemurafenib 0.066 | [5] -0.01 | [6] -0.176 | givinostat 0.014 | barasertib -0.018 | [7] -0.011 | volasertib 0.01 | [8] 0 | epoxomicin 0.135 | [10] -0.053 | [11] -0.012 | [12] -0.02 | [13] 0.084
